# From PubChem BioAssay AID540276 (National Center for Advancing Translational Sciences (NCATS), 2011)
# Where “and” joins values, the source holds several entries; their conditions need not be identical. Equal values may be shown once. Screen size: about 300,000 compounds; about 5,400 (1.8%) were called active. The inconclusive results got no clear call from the source; some entries with a clear call stand among them for comparison. Calls come from the whole dose curve; tested in HEK293 cells. A potency beside an inconclusive call is a rough fit, not a confirmed value.
# Assay: qHTS for inhibitors of binding or entry into cells for Marburg Virus
# Conditions: Marburg virus pseudotyped entry inhibition, cell reporter; activity change, negative = inhibition: at 37.8 µM (top of the series) unless noted
# % is set by controls: 0 for no effect and ±100 for the full control effect; potency is the fitted concentration of half-maximal effect.
SMILES,Potency,"activity change, negative = inhibition"
O=C(O)Cc1sc(Nc2ccc(Cl)cc2)nc1-c1cccs1,"inconclusive: 3.55 µM [activator, partial curve, poor fit]",–
C#CCN1C(=O)S/C(=C/c2cc(C)n(CC)c2C)C1=O,"inconclusive: 3.98 µM [activator, partial curve]",–
CCN(Cc1ccccc1)c1nc2c(S(=O)(=O)c3ccccc3)nnn2c2ccc(Cl)cc12,"inconclusive: 35.5 µM [inhibitor, single point]",–
CC1CCCCC12NC(=O)N(CC(=O)Nc1cccnc1Cl)C2=O (configuration not stated),"inconclusive: 35.5 µM [inhibitor, single point]",–
Cc1ccccc1Cn1c(CN2CCc3ccccc3C2)nc2c1c(=O)n(C)c(=O)n2C,"inconclusive: 29.1 µM [inhibitor, single point]",–
CCS(=O)(=O)N1CCC(NC(=O)C(Cc2cccc(OC)c2OC)NC(C)=O)CC1 (configuration not stated),"inconclusive: 1.26 µM [activator, single point]",–
CCOc1ccc(C(=O)COC(C)=O)cc1,"inconclusive: 1.26 µM [activator, single point]",–
COc1ccccc1CNCC(O)(c1ccc(Cl)cc1)c1ccc(Cl)cc1,"inconclusive: 29.1 µM [inhibitor, single point]",–
CCc1ccc(Nc2c([N+](=O)[O-])c(=O)oc3ccccc23)cc1,"inconclusive: 2 µM [inhibitor, partial curve, poor fit]",–
CCOc1cc(/C=N/NC(=O)c2cccc([N+](=O)[O-])c2)ccc1OS(=O)(=O)c1ccccc1,"inconclusive: 5.8 µM [inhibitor, partial curve, poor fit]",–
O=C1c2ccccc2CN1CCSC(=S)N1CCOCC1,–,inactive: -30%
C=CCN=C1NC(c2cccc(C(F)(F)F)c2)C(C(=O)OC)=C(C)N1Cc1ccccc1 (configuration not stated),–,inactive: -24.7% [at 14.2 µM]
CCCCC1=NN(C(=O)c2ccco2)C(O)(C(F)(F)F)C1 (configuration not stated),"inconclusive: 8.91 µM [inhibitor, full curve, poor fit]",–
COc1ccc(C2CC(c3ccc(F)cc3)=NN2c2ccccc2)cc1OC (configuration not stated),–,inactive: 3.49%
COc1ccc(Br)c(/C=N/NC(=O)COc2ccc(-c3ccccc3)cc2)c1,–,inactive: 4.46% [at 46.1 µM]
Cc1ccn2cc(-c3cccc(S(=O)(=O)N4CCCC4)c3)nc2c1,"inconclusive: 35.5 µM [inhibitor, single point]",–
Cc1nc(SCC(=O)Nc2ccc3c(c2)OCCO3)nc(C)c1C,"inconclusive: 0.1 µM [inhibitor, full curve, poor fit]",–
O=C1NC2(CCCCCC2)Cc2ccccc21,"inconclusive: 20.6 µM [activator, partial curve, poor fit]",–
COc1ccccc1NC(=O)CSc1nc2c(sc3ccccc32)c(=O)n1CCN(C)C,"inconclusive: 2.82 µM [activator, partial curve, poor fit]",–
COc1ccc(NS(=O)(=O)c2cccc(C(=O)NCC(c3ccc(OC)cc3)N3CCOCC3)c2)cc1 (configuration not stated),"inconclusive: 11.2 µM [inhibitor, partial curve, poor fit]",–
CS(=O)(=O)NN1C(=O)c2ccccc2NC1c1ccccc1 (configuration not stated),"inconclusive: 5.62 µM [activator, partial curve, poor fit]",–
Cc1ccc2nc(-c3ccccc3Cl)cc(C(=O)Nc3cc(C)on3)c2c1,–,inactive: 0%
Cc1cccc(OCC(=O)O/N=C(\N)c2ccncc2)c1,–,inactive: 2.18% [at 46.1 µM]

SMILES,Potency,"activity change, negative = inhibition"
Cc1ccc(NC(=O)c2cc(N(C)C)ccc2[P+](=O)O)cc1,"inconclusive: 29.1 µM [activator, single point]",–
CNC(=O)COc1ccccc1C(=O)Nc1ccc2c(c1)oc1ccccc12,active: 20.6 µM,–
O=C(NCc1ccccc1)C1CCC(CNS(=O)(=O)c2cccs2)CC1 (configuration not stated),–,inactive: -9.62% [at 46.1 µM]
CC1N(C)c2cc(NC(=O)c3ccco3)c(P(=O)(Nc3ccc([N+](=O)[O-])cc3)N3CCOCC3)cc2C1(C)C (configuration not stated),"inconclusive: 10 µM [inhibitor, partial curve]",–
Cc1ccc2cc(CN(CC3CCCO3)C(=O)Nc3ccccc3F)c3nnnn3c2c1 (configuration not stated),–,inactive: -1.98% [at 46.1 µM]
O=C(COc1ccccc1)NC1CCS(=O)(=O)C1 (configuration not stated),–,inactive: 0.115%
O=[N+]([O-])c1nn(-c2ccc(Cl)cc2)n(O)c1=NCc1cccnc1,–,inactive: -4.81%
COc1cccc(NC(=O)c2ccc3c(c2)N(CC(=O)N2CCOCC2)C(=O)C(C)(C)O3)c1,–,inactive: -24.8% [at 46.1 µM]
CCCOC(=O)c1c(N)n(Cc2cccs2)c2nc3ccccc3nc12,"inconclusive: 0.0065 µM [inhibitor, full curve, poor fit]",–
CC1CCN(S(=O)(=O)c2ccc3c(c2)N(CC(=O)NCCCOC(C)C)C(=O)CO3)CC1,inactive,–
COc1ccc(C(C(=O)NC2CCCC2)N(Cc2ccccc2)C(=O)c2nsc(Cl)c2Cl)cc1 (configuration not stated),"inconclusive: 7.3 µM [inhibitor, partial curve, poor fit]",–
O=C(Nc1ccc(S(=O)(=O)N2CCCCC2)cc1)c1ccccc1Cl,"inconclusive: 0.0046 µM [inhibitor, full curve, poor fit]",–
c1ccc(C2c3[nH]c4ccccc4c3CCN2Cc2cccn2-c2cccnc2)nc1 (configuration not stated),–,inactive: -6.35% [at 46.1 µM]
CCN(CC)CCNC(=O)c1ccc(NC(=O)c2ccc(Cl)c(S(=O)(=O)N3CCCCCC3)c2)cc1,"inconclusive: 8.91 µM [inhibitor, partial curve, poor fit]",–
Nc1cc(N)nc(SCc2ccccc2)n1,"inconclusive: 5.8 µM [activator, partial curve]",–
COc1ccc(NC(=O)C(c2ccc(C)cc2)N(C)C(=O)CNC(C)=O)cc1 (configuration not stated),"inconclusive: 0.184 µM [inhibitor, partial curve, poor fit]",–
C=CCNC(=O)CN1CCC(n2c(C)nc3cc(C(F)(F)F)ccc32)CC1,–,inactive: 6.71%
O=C(O)C1CC=CCC1C(=O)N1CCN(c2nc(-c3ccccc3)c3ccccc3n2)CC1 (configuration not stated),"inconclusive: 25.1 µM [inhibitor, single point]",–
Cn1cc(/C=C2/SC(=O)N(CC(=O)Nc3ccc4c(c3)OCO4)C2=O)c2ccccc21,"inconclusive: 29.1 µM [inhibitor, single point]",–
CCOC(=O)Cn1c(CN(C)Cc2ccccc2)nc2c1c(=O)n(C)c(=O)n2C,–,inactive: -11.2%
CCCc1nc2c(C)ccc(C)c2c(N)c1CC,active: 9.2 µM,–
CCN(CC)S(=O)(=O)c1ccc(-c2nnc(SCc3nnc(-c4ccc(C)cc4)o3)n2CC)cc1,–,inactive: 0.0583%
CCn1c(SCC(=O)n2nc(C)cc2C)nnc1-c1ccc2c(c1)OCO2,"inconclusive: 1.26 µM [activator, single point]",–

SMILES,Potency,"activity change, negative = inhibition"
COc1ccc(Cn2c(SCC(=O)N3CCN(c4ccc(F)cc4)CC3)nc3ccccc32)cc1,–,inactive: -29.5% [at 46.1 µM]
O=C(O)/C=C/c1ccc(S(=O)(=O)Nc2ccccc2C(=O)Nc2ccc(F)cc2)cc1,–,inactive: 3.24% [at 46.1 µM]
Cc1cccn2c(=O)nc(SCC(=O)N3N=C(c4cccs4)CC3c3ccc(F)cc3)nc12 (configuration not stated),"inconclusive: 2.51 µM [inhibitor, partial curve, poor fit]",–
Cc1ccc(C2CC(=O)N(Cc3ccc(F)cc3)c3c2c(C)nn3-c2nc(C)cc(C)n2)cc1 (configuration not stated),–,inactive: -1.86% [at 46.1 µM]
COc1ccc(CCNC(=O)CCCn2c(=O)c3ccccc3n(CC(=O)Nc3ccccc3C)c2=O)cc1OC,"inconclusive: 7.08 µM [inhibitor, partial curve, poor fit]",–
C=CCn1c(SCC(=O)N2CCOCC2)nc2ccccc2c1=O,"inconclusive: 0.794 µM [activator, full curve]",–
Cn1cc(Cl)c(C(=O)NC(=S)Nc2sc3c(c2C#N)CCCCC3)n1,"inconclusive: 1 µM [activator, partial curve, poor fit]",–
Cc1ccc(-n2c(C)nc3c(cnn3-c3ccc(F)cc3)c2=O)cc1,"inconclusive: 10 µM [inhibitor, partial curve]",–
c1csc(CNc2nc3ccccc3n2CCN2CCOCC2)c1,–,inactive: -4.04%
COC(=O)[C@H](NC(=O)c1cc(-c2ccccc2)nc2ccccc12)c1ccccc1,"inconclusive: 35.5 µM [inhibitor, single point] and inconclusive: 20.6 µM [inhibitor, partial curve, poor fit]",–
CCn1c(O)c(N=NC(=O)Cn2ccc(C(F)(F)F)n2)c2ccccc21,"inconclusive: 11.2 µM [activator, single point]",–
CCc1ccc(NC(=S)NC2CCN(Cc3ccccc3)CC2)cc1,"inconclusive: 7.08 µM [inhibitor, partial curve, poor fit]",–
CC1CCN(C(=O)C2CCCN(S(=O)(=O)c3cccc4nsnc34)C2)CC1 (configuration not stated),–,inactive: 13.2% [at 46.1 µM]
CCCOc1ccc(OC(=O)Cc2ccc(OC)c(S(=O)(=O)N3CCOCC3)c2)cc1,–,inactive: -8.92%
O=C(NNc1ccccc1[N+](=O)[O-])Nc1ccccc1,–,inactive: 4.45%
CCN(c1ccccc1)S(=O)(=O)c1cccc(C(=O)NCC(c2cccs2)N(C)C)c1 (configuration not stated),"inconclusive: 35.5 µM [inhibitor, single point]",–
Cc1ccccc1NC(=O)c1cc2c([nH]c1=O)CC(C)(C)CC2=O,–,inconclusive: 68% [activator] [at 46.1 µM]
O=[N+]([O-])c1ccc2cn(-c3ccccc3)nc2c1,"inconclusive: 3.98 µM [activator, single point]",–
O=C(COC(=O)c1ccc2c(=O)n3c(nc2c1)CCC3)Nc1ccc(OC(F)F)cc1,–,inactive: -23.9% [at 46.1 µM]
O=C(c1cc(-c2ccncc2)nc2ccccc12)N1CCN(c2ncccn2)CC1,active: 1.12 µM,–
O=C(CSc1ncnc2ccccc12)c1cccs1,"inconclusive: 25.1 µM [inhibitor, single point]",–

# Reformatted bar-delimited: 4 of the compounds above.
SMILES | Potency | activity change, negative = inhibition
O=[N+]([O-])c1nn(-c2ccc(Cl)cc2)n(O)c1=NCc1cccnc1 | – | inactive: -4.81%
COc1cccc(NC(=O)c2ccc3c(c2)N(CC(=O)N2CCOCC2)C(=O)C(C)(C)O3)c1 | – | inactive: -24.8% [at 46.1 µM]
CCCOC(=O)c1c(N)n(Cc2cccs2)c2nc3ccccc3nc12 | inconclusive: 0.0065 µM [inhibitor, full curve, poor fit] | –
CC1CCN(S(=O)(=O)c2ccc3c(c2)N(CC(=O)NCCCOC(C)C)C(=O)CO3)CC1 | inactive | –
